Taken from: PubChem BioAssay AID743121 (NCATS, 2013)
In all, the deposit lists about 26,000 reagents; shown is an unselected part. In the full data, 167 (0.63%) got an active call. 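Calls are per gene from RSA p-values that are not deposited; an individual active-marked siRNA can sensitise only weakly.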 Reagents against one gene are numbered here.

Test: 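Genes whose silencing strengthens cell killing by camptothecin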 (primary screen)
Cell system: MDA-MB-231 cells, a human breast cancer line
Knock-down reagent: single siRNA against human genes, 20 nM siRNA (0.8 pmol per well)
Timing: 120 h (drug added 48 h after transfection, read 72 h later)
Treatment: camptothecin 20 nM (about EC30) for 72 h; vehicle 0.1% DMSO in parallel plates
Detection: 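CellTiter-Glo ATP signal, scaled to control siRNA as percent viability; sensitisation given as log2 of untreated divided by camptothecin-treated viability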
Reading the numbers: log2 vehicle/camptothecin viability: higher = stronger sensitisation to camptothecin; viability with camptothecin and viability without drug: higher = more viable cells
Rule for the call: 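Each gene scored by redundant siRNA activity (RSA) over its individual siRNA ratios; a gene is called active at p < 0.001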

gene,reagent,log2 vehicle/camptothecin viability,viability with camptothecin (% of control),viability without drug (% of control),call
PITX3 (paired like homeodomain 3),1,-0.105,67.6,62.9,inactive
PITX3 (paired like homeodomain 3),2,-0.00508,56.6,56.4,inactive
PITX3 (paired like homeodomain 3),3,-0.598,83.1,54.9,inactive
RBBP5,1,-0.041,100,97.2,inactive
RBBP5,2,0.236,43.8,51.6,inactive
RBBP5,3,-0.419,99,74,inactive
CLUH (CLUH binding protein of NUMT mRNA),1,0.486,56.2,78.8,inactive
CLUH (CLUH binding protein of NUMT mRNA),2,0.293,54,66.2,inactive
CLUH (CLUH binding protein of NUMT mRNA),3,-0.199,61.7,53.8,inactive
CLUH (CLUH binding protein of NUMT mRNA),4,-0.623,3.05,1.98,inactive
KIF7 (kinesin family member 7),1,0.201,57.2,65.8,inactive
KIF7 (kinesin family member 7),2,0.0713,19.6,20.6,inactive
KIF7 (kinesin family member 7),3,-0.272,33.6,27.8,inactive
KIF7 (kinesin family member 7),4,-0.409,99.3,74.8,inactive
VCL (vinculin),1,0.0602,104,109,inactive
VCL (vinculin),2,0.0317,96.8,99,inactive
VCL (vinculin),3,-0.599,64.7,42.7,inactive
VCL (vinculin),4,-0.465,95,68.8,inactive
AXIN2 (axin 2),1,-0.144,88.7,80.3,inactive
AXIN2 (axin 2),2,-0.508,82.5,58,inactive
AXIN2 (axin 2),3,-0.469,103,74.3,inactive
AXIN2 (axin 2),4,-0.307,86,69.5,inactive
FKBP11 (FKBP prolyl isomerase 11),1,0.724,54.9,90.7,inactive
FKBP11 (FKBP prolyl isomerase 11),2,-0.0907,97.4,91.4,inactive
FKBP11 (FKBP prolyl isomerase 11),3,-0.326,117,93.2,inactive
FKBP11 (FKBP prolyl isomerase 11),4,0.0353,96.4,98.8,inactive
SST (somatostatin),1,0.0463,23.2,24,inactive
SST (somatostatin),2,-0.209,105,90.9,inactive
SST (somatostatin),3,-0.204,101,88.1,inactive
SST (somatostatin),4,-0.0853,71.4,67.3,inactive
LRP1 (LDL receptor related protein 1),1,0.11,71.6,77.3,inactive
LRP1 (LDL receptor related protein 1),2,-0.0133,79.4,78.6,inactive
LRP1 (LDL receptor related protein 1),3,-0.357,118,92.4,inactive
LRP1 (LDL receptor related protein 1),4,0.128,79,86.4,inactive
TRIO (trio Rho guanine nucleotide exchange factor),1,0.0678,72.8,76.3,inactive
TRIO (trio Rho guanine nucleotide exchange factor),2,-0.351,113,88.3,inactive
TRIO (trio Rho guanine nucleotide exchange factor),3,-0.0491,103,99.2,inactive
TRIO (trio Rho guanine nucleotide exchange factor),4,-0.39,114,86.8,inactive
PACSIN1 (protein kinase C and casein kinase substrate in neurons 1),1,-0.67,107,67.5,inactive
PACSIN1 (protein kinase C and casein kinase substrate in neurons 1),2,1.3,12.4,30.4,inactive
PACSIN1 (protein kinase C and casein kinase substrate in neurons 1),3,-0.185,115,101,inactive
PACSIN1 (protein kinase C and casein kinase substrate in neurons 1),4,-0.19,75.6,66.2,inactive
PNLIPRP1 (pancreatic lipase related protein 1),1,-0.362,96.6,75.2,inactive
PNLIPRP1 (pancreatic lipase related protein 1),2,0.168,86.4,97,inactive
PNLIPRP1 (pancreatic lipase related protein 1),3,-0.0237,42.9,42.2,inactive
PNLIPRP1 (pancreatic lipase related protein 1),4,1.49,24.9,70,inactive

Ordered by “viability with camptothecin (% of control)” (high to low): some entries from above.
gene,reagent,log2 vehicle/camptothecin viability,viability with camptothecin (% of control),viability without drug (% of control),call
CLUH (CLUH binding protein of NUMT mRNA),3,-0.199,61.7,53.8,inactive
CLUH (CLUH binding protein of NUMT mRNA),1,0.486,56.2,78.8,inactive
CLUH (CLUH binding protein of NUMT mRNA),2,0.293,54,66.2,inactive
